Measurements from US4327114A, “Substituted 1,8-dihydroxy-9-(10H)anthracenones” (Boehringer Ingelheim GmbH, priority 1980, dated 1982).

tested on: skin (forearms of volunteer human test subjects); test: Orienting skin compatibility in humans (ointments on forearm); assay type: in vivo; conditions: 0.44% ointment
Experimental: Ointments, each containing individually 0.44% of compounds […] and K were applied to the forearms of volunteer human test subjects, covered with bandage gauze and allowed to remain on the skin for 16 hours. After 16 hours the ointments were washed off with soap solution, and the skin irritation and discoloration, if any, were evaluated visually and photographed. Then, the test ointments were again administered and allowed to remain on the skin until the next day. Again, the reactions were evaluated and a new treatment was started.

Row | Structure (SMILES) | discoloration of the bandage gauze
1 | O=C1c2c(O)cccc2Cc2cccc(O)c21 [Compound A, 1,8-Dihydroxy-9-(10H)anthracenone] | irreversibly discolored violet
2 | O=C1c2c(O)ccc(Cl)c2Cc2c(Cl)ccc(O)c21 [Compound C, 4,5-Dichloro-1,8-dihydroxy-9-(10H)anthracenone] | no discoloration could be noticed
3 | CC(C)c1ccc(O)c2c1Cc1cccc(O)c1C2=O [Compound F, 1,8-Dihydroxy-4-isopropyl-9-(10H)anthracenone] | no discoloration could be noticed
4 | CC(C)(C)c1ccc2c(c1O)C(=O)c1c(ccc(C(C)(C)C)c1O)C2 [Compound K, 2,7-Di-tert. butyl-1,8-dihydroxy-9-(10H)anthracenone] | no discoloration could be noticed
5 | CC(C)(C)c1ccc2c(c1O)C(=O)c1c(O)cccc1C2 [D, 2-tert. Butyl-1,8-dihydroxy-9-(10H)anthracenone] | no discoloration could be noticed
6 | CCCCC(C)c1ccc2c(c1O)C(=O)c1c(O)cccc1C2 (stereo not shown) [E, 2-(2-Hexyl)-1,8-dihydroxy-9-(10H)anthracenone] | no discoloration could be noticed
7 | CC(C)c1cc(C(C)C)c2c(c1O)C(=O)c1c(O)cccc1C2 [G, 1,8-Dihydroxy-2,4-diisopropyl-9-(10H)anthracenone] | no discoloration could be noticed

Some compounds share one wording; it may come from a single statement.
